This is an account of results in publication PMC9473917.

Results are given in words; binding and its absence hold for the method and conditions named. Binding seen in cells or lysates may run through a third protein. Some entries that bind do so weakly or less than the wild type. Sequences can lack the tags named with a protein.

Assay [1] concerns the target T1, Endogenous E-cadherin (Drosophila (endogenous in ovaries)) (UniProt Q24298).
T1 sequence: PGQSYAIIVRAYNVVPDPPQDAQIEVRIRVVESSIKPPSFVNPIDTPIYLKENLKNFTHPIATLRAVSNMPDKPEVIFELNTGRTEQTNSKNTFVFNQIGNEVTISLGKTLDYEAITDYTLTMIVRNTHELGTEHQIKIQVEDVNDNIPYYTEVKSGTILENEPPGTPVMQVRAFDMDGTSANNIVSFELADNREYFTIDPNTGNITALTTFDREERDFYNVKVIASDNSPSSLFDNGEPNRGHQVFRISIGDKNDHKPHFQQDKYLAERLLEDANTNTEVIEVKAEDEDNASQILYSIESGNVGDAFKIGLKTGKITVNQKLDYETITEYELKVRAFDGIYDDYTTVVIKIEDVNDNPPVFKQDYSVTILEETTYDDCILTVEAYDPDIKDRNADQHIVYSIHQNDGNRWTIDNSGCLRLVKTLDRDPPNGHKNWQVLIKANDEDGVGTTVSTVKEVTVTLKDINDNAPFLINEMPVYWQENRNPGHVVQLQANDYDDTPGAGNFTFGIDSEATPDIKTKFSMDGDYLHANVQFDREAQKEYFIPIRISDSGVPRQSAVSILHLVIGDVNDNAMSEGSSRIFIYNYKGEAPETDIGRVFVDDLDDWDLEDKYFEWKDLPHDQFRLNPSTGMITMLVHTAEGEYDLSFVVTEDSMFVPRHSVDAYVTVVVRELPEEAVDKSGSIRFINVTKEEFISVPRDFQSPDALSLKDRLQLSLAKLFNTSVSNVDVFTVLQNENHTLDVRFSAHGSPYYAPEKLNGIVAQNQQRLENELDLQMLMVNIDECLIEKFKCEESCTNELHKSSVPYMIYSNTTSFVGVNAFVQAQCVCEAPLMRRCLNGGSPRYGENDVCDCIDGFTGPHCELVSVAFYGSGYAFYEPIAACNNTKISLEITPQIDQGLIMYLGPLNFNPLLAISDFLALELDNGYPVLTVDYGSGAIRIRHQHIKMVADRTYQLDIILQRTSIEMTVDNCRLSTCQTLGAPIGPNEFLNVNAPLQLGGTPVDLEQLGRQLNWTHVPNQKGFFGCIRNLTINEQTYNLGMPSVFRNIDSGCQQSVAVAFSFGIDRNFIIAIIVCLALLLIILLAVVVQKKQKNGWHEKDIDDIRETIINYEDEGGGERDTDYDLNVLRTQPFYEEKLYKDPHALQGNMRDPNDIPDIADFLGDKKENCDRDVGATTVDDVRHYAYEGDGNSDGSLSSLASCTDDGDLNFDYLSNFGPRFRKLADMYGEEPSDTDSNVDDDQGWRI
The experiment in a line: co-IP; reverse IP; ovary extracts from 50 females; proteins chemically cross-linked with DSP prior to cell lysis; Dynabeads protein G coated with an anti-E-cadherin antibody; wash buffer PBS-Triton 0.02%; blots with anti-GFP or anti-E-cadherin.

Assay [2] addresses T2, E-cadherin-GFP (shg::GFP Knock-In) (Drosophila) (UniProt Q24298).
T2 sequence: T1 sequence
The experiment in a line: proximity ligation; Duolink PLA on ovaries of shg::GFP Knock-In females with mouse anti-GFP and rabbit anti-Stat92E (D. Montell); Canton females as negative control; Tween 0.1%.

In a further assay the target is T3, Stat92E-GFP (Drosophila) (UniProt Q24151).
T3 sequence: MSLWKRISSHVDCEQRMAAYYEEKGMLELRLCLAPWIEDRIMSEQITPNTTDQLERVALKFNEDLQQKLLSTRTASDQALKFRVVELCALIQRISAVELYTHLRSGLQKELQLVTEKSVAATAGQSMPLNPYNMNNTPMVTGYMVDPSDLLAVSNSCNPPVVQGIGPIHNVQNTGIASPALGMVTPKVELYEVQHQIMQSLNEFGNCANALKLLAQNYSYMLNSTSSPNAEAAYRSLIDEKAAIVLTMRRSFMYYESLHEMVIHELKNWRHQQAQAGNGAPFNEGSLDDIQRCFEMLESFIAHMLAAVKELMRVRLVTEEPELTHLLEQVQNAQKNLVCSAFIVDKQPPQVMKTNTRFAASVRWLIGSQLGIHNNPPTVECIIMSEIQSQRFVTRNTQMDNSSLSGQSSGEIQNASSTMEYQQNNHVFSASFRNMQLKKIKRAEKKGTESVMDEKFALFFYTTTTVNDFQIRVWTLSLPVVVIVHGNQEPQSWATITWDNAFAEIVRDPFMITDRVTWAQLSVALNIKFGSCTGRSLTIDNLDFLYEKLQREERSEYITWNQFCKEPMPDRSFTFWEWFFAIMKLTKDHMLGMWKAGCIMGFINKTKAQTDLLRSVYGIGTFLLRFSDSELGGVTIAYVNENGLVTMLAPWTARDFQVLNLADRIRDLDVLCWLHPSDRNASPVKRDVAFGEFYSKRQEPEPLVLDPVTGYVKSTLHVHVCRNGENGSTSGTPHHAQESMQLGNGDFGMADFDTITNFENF
The experiment in a line: co-IP; ovary extracts from 50 females; proteins chemically cross-linked with DSP prior to cell lysis; GFP magnetic agarose beads (Chromotek, GFP-trap); wash buffer 10 mM Tris-HCl pH7.5, 300 mM NaCl, 0.05% NP40, 0.5 mM EDTA; blots with anti-GFP or anti-E-cadherin.

B1: Stat92E-GFP (protein, UniProt Q24151 1-761)
chain: T3 sequence
As to B1, the binding result in assay [1] was “binds”.

B2: Endogenous Stat92E (protein, UniProt Q24151 1-761)
chain: T3 sequence
For the molecule B2, the binding result in assay [2] was “binds”.

B3: Endogenous E-cadherin (protein, UniProt Q24298 262-1507)
chain: T1 sequence
For the molecule B3, the binding entry in the assay with Stat92E-GFP (Drosophila) is “binds”.
